Protein sequences, listed by entry. Tags and fused reporters are not part of them. Lines headed by an entry give the natural chain unless they say otherwise; changes in a name come on top.
UniProt Q9NVX7: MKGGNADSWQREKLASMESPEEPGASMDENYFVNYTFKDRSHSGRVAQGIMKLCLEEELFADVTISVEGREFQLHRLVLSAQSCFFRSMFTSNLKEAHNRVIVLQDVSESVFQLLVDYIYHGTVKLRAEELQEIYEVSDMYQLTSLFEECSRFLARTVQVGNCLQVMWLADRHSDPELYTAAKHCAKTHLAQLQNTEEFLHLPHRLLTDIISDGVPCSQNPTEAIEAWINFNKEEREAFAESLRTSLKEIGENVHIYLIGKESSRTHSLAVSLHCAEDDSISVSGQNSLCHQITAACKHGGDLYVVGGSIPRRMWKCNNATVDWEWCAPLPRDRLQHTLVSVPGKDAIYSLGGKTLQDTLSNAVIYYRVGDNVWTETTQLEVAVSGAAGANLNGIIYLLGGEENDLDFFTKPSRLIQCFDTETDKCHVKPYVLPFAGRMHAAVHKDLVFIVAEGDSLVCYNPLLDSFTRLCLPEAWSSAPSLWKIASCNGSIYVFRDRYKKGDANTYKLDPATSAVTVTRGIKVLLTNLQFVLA
UniProt Q9UKL0: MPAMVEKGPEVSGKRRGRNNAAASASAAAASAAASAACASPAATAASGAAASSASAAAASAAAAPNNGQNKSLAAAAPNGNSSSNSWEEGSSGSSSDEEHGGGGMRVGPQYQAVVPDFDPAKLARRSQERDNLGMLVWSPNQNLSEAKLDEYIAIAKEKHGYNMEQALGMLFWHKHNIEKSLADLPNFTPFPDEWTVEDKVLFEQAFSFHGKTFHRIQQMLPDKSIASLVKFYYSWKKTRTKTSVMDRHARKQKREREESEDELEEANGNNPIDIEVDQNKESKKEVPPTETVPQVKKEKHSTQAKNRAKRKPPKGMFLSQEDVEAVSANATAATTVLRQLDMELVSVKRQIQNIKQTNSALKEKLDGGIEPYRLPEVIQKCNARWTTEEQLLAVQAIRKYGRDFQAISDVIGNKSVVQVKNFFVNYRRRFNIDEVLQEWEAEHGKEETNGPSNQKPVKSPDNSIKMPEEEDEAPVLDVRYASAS

According to publication PMC9525703:

Legend:
[1] = molecular target: Flag-KBTBD4^R313PRR, pCW57.1 construct in D283Med (human) (UniProt Q9NVX7); assay: co-IP; D283Med, Flag-KBTBD4 variants induced with 1 ug/mL doxycycline for 40 h, cells NOT treated with MLN4924; ANTI-FLAG M2 Affinity Gel 3 h at 4 C; endogenous CoREST and LSD1 by immunoblot
[2] = molecular target: Flag-KBTBD4^P311PP, pCW57.1 construct in D283Med (human) (UniProt Q9NVX7); assay: as above
[3] = molecular target: Flag-KBTBD4^WT, pCW57.1 construct in D283Med (human) (UniProt Q9NVX7); assay: co-IP; D283Med, Flag-KBTBD4 variants induced with 1 ug/mL doxycycline for 40 h, cells treated with 0.1 uM MLN4924; ANTI-FLAG M2 Affinity Gel 3 h at 4 C; endogenous CoREST and LSD1 by immunoblot
[4] = molecular target: Flag-KBTBD4^R313PRR, pCW57.1 construct in D283Med (human) (UniProt Q9NVX7); assay: as above
[5] = molecular target: Flag-KBTBD4^P311PP, pCW57.1 construct in D283Med (human) (UniProt Q9NVX7); assay: as above
[6] = molecular target: Flag-KBTBD4^P311PP, MIGR1 construct in DAOY (human) (UniProt Q9NVX7); assay: co-IP; DAOY cell lines stably expressing KBTBD4 variants; endogenous CoREST; which partner was precipitated is not told in the text shown
[7] = molecular target: Flag-KBTBD4^R313PRR, pcDNA3.1(+) construct (human) (UniProt Q9NVX7); assay: co-IP; HEK293T co-transfected with HA-CoREST and Flag-KBTBD4 variants; anti-FLAG resin, immunoblot; 0.1 uM MLN4924 for 4-5 h (interaction increased by MLN4924); lysis buffer 50 mM Tris pH 7.5, 150 mM NaCl, 0.1% NP-40
[8] = molecular target: Flag-KBTBD4^P311PP, pcDNA3.1(+) construct (human) (UniProt Q9NVX7); assay: as above
[9] = molecular target: Flag-KBTBD4^R312RG (human) (UniProt Q9NVX7); assay: as above

For “CoREST, endogenous in D283Med (from UniProt Q9UKL0 1-485)”, the binding [1] was “no binding (only cells not treated with MLN4924)”, the binding [2] was “no binding (only cells not treated with MLN4924)” and the binding [3] was “no binding”. The binding [4] was “binds” and the binding [5] was “binds”.
For “CoREST, endogenous in DAOY (from UniProt Q9UKL0 1-485)”, the binding [6] was “binds”.
With “HA-tagged CoREST (CoREST1; pCMV5 HA RCOR1) (from UniProt Q9UKL0 1-485)” the binding [7] was “binds”, the binding [8] was “binds” and the binding [9] was “binds”.

No constants are given. Whether binding was seen depends on the method and setting. Binding seen in cells or lysates may run through a third protein. For part of these data: A result given as binding can be weak or reduced; the word gives no strength.
